Consider 1 compound from BindingDB's records for doi:10.1016/j.bmcl.2004.01.050 (Cnrs, 2004).

For this test, the target named is T1, Casein kinase I isoform alpha (Rattus norvegicus, UniProt P97633).
T1 sequence (P97633 whole entry): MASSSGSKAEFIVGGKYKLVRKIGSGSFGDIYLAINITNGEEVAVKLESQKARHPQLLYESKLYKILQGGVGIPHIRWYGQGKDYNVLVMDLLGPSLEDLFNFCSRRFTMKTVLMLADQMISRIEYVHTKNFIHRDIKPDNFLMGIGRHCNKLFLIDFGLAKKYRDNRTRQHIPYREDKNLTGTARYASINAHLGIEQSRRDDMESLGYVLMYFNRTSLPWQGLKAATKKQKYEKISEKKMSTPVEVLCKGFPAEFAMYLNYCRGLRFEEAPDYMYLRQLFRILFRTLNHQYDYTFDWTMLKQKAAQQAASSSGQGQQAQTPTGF

The term IC50 denotes the concentration needed to halve the response being measured. A higher IC50 goes with a need for much substance.

Compound `CC[C@H](CO)Nc1nc(NCc2ccccc2)c2ncn(C(C)C)c2n1` [2,6,9-Trisubstituted purine deriv. 28] yielded an IC50 of 17 µM.
